These results are taken from PubChem BioAssay AID2685 (National Center for Advancing Translational Sciences (NCATS), 2010).

This assay is described as follows: qHTS Assay for Lipid Storage Modulators in Drosophila S3 Cells.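 As to cell number change: cells counted by Cell Tracker Red CMTPX staining in the red channel.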 The note with it: BODIPY lipid droplet fluorescence, 18-24 h; for cell number change: measured here: cell count max response, cells fed with added oleic acid. The gist of the method: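 Drosophila S3 cells got compounds at several concentrations plus oleic acid (400 uM solution). Laser-scanning cytometry with 488 nm excitation read lipid droplets at 500-530 nm and cells at 575-640 nm. Percent activity was relative to 20 uM Triacsin C.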

Setting [1] is: measured here: lipid fluorescence (Fed channel) AC50, cells fed with added oleic acid.
[2] abbreviates: measured here: cell number channel AC50, cells fed with added oleic acid.

Some of the results follow. Further columns of the screen follow, without active or inactive calls. The list favours compounds with an active or inconclusive main result. The note in brackets gives the kind of curve behind each potency; many fits are weak.

Consider `CCOc1ccc(NC(=S)Nc2ccc(OCC)cc2)cc1`, for which the cell number change was -3.73%. The AC50 under setting [1] was 0.103 µM [falling, full curve].
As to `CC1=CCCC(C)(C)C1/C=C/C(C)=N/NC(=O)c1ccncc1` (centres undefined), the cell number change is -1.49%.
For `O=C(Nc1ccc(F)cc1)c1cc(S(=O)(=O)N2CCCCC2)cs1`, the cell number change was -7.88%. Further, under setting [1], the AC50 was 6.51 µM [rising, single point].
Turning to `CCOC(=O)N1CCN(C(=O)c2ccc(NS(C)(=O)=O)cc2)CC1`, the cell number change was -35.9%. Further, under setting [2], the AC50 is 29.1 µM [falling, single point]. Besides, the AC50 under setting [1] was 29.1 µM [falling, single point].
For the molecule `O=C1CC(C(=O)Nc2ccc(Br)cc2)S/C(=N\N=C\c2ccco2)N1` (centres undefined), the cell number change is 17.3%. Besides, the AC50 under setting [2] is 2.59 µM [rising, single point]. Also, the AC50 under setting [1] is 1.64 µM [falling, partial curve].
Consider `O=C(NCc1ccccc1Cl)c1ccc2nnsc2c1`, for which the cell number change stood at 18.5%. In addition, the AC50 under setting [1] was 1.3 µM [rising, full curve, poor fit].
For the molecule `CCN(CC(=O)Nc1c(F)cccc1F)C(=O)c1cc(S(=O)(=O)N(C)C)ccc1N1CCCC1`, the AC50 under setting [1] is 0.651 µM [rising, full curve, poor fit].
In the case of `CCOC(=O)/C(C#N)=C/c1c(N2CCN(c3cccc(Cl)c3)CC2)nc2c(C)cccn2c1=O`, the cell number change is -23.6%. The AC50 under setting [1] is 6.51 µM [falling, single point].
`COc1cc(/C=C2/C(=O)N(c3ccc(Br)cc3)N=C2C)cc(OC)c1OC`: the cell number change came to 4.17%. Besides, the AC50 under setting [1] was 29.1 µM [falling, single point].
Turning to `CC(C)(C)c1ccc(C(=O)NCCCN2CCN(CCCNC(=O)c3ccc(C(C)(C)C)cc3)CC2)cc1`, the cell number change was -76.1%. Also, the AC50 under setting [2] is 29.1 µM [falling, single point]. In addition, the AC50 under setting [1] was 18.4 µM [falling, single point].
As for `Cn1c(=O)c(C(=O)COC(=O)c2cc(C(F)(F)F)nc3c(C(F)(F)F)cccc23)c(N)n(CC2CC2)c1=O`, the cell number change stood at 0.312%. In addition, the AC50 under setting [2] is 6.51 µM [falling, single point]. The AC50 under setting [1] was 6.51 µM [falling, single point].
As to `COc1cccc(-c2nn(-c3ccc(C)cc3)cc2C(=O)N2CCN(C3CCS(=O)(=O)C3)CC2)c1` (centres undefined), the cell number change is -21.3%. In addition, the half-maximal activity concentration (AC50) under setting [1] was 0.461 µM [falling, partial curve, poor fit].
Take `COc1ccc2[nH]c(=O)c(COC(=O)c3cccs3)cc2c1`: the cell number change came to 49.4%. Under setting [2], the AC50 is 18.4 µM [rising, partial curve].
As to `COc1cc(OC)cc(-c2sc3ccc(OC)cc3c2C#CC(C)(C)O)c1`, the cell number change came to 12%. Besides, the AC50 under setting [1] was 0.0651 µM [rising, single point].
Take `N#Cc1nc(COc2ccccc2)oc1N1CCN(Cc2ccccc2)CC1`: the AC50 under setting [1] is 16.4 µM [rising, partial curve].
Regarding `O=C(Nc1nnc(-c2ccccc2)s1)c1ccccc1O`, the cell number change was -35%. The AC50 under setting [2] was 29.1 µM [falling, single point]. Further, under setting [1], the AC50 was 25.9 µM [falling, single point].
Consider `CCOC(=O)c1c(NC(=O)CCS(=O)(=O)c2ccccc2)sc2c1CCN(C)C2`, for which the cell number change is -11.8%. Under setting [1], the AC50 is 6.51 µM [falling, single point].
Regarding `CCOc1cc(/C=C/C(=O)OCC(=O)NCCN2C(=O)CSC2=O)ccc1OCC(C)C`, the cell number change was -5.71%.
`C=CCOc1ccc(CNCc2cccnc2)cc1`: the cell number change is -3.88%.
In the case of `COc1cc(C(c2c(C)[nH][nH]c2=O)c2c(C)[nH][nH]c2=O)ccc1OCc1ccc([N+](=O)[O-])cc1`, the cell number change was -8.33%. Moreover, the AC50 under setting [2] is 0.13 µM [falling, full curve, poor fit]. Moreover, the AC50 under setting [1] was 0.731 µM [falling, full curve].
On to `Cc1ccc(S(=O)(=O)NNC(=S)NC(C)(C)C)cc1`, for which the cell number change stood at 5.48%. Besides, the AC50 under setting [1] is 0.0731 µM [falling, full curve, poor fit].
On to `O=C(CCC(=O)N(CC(=O)NC1CCCCC1)Cc1ccccc1)Nc1nccs1`, for which the cell number change came out at 38.5%. Further, under setting [2], the AC50 is 29.1 µM [rising, single point].
For `COc1cc(CC(=O)Nc2ccc3nc(C)sc3c2)cc(OC)c1OC`, the cell number change was found to be 49%. The AC50 under setting [2] was 1.84 µM [rising, full curve]. Further, the AC50 under setting [1] is 0.0291 µM [rising, full curve, poor fit].
As to `Cc1cc(C(=O)NCCC2=CCCCC2)no1`, the cell number change is 35.3%. Further, under setting [2], the AC50 is 29.1 µM [rising, single point]. Also, the AC50 under setting [1] is 18.4 µM [falling, single point].
As to `C=CCNC(=O)NC(=O)COC(=O)[C@H](C)NS(=O)(=O)c1c(C)c(C)cc(C)c1C`, the cell number change was -36.8%. In addition, under setting [2], the AC50 is 10.3 µM [falling, partial curve]. Besides, the AC50 under setting [1] is 13 µM [falling, partial curve, poor fit].
On to `N=c1n(CC(=O)c2ccc(Br)cc2)c2ccccc2n1Cc1ccccc1`, for which the cell number change is -43.6%. Moreover, the AC50 under setting [2] is 3.26 µM [falling, single point].
Consider `Cc1cc(N2CCOCC2)nc2ccc(NC(=O)CCC(=O)N3CCN(c4ccccc4)CC3)cc12`, for which the cell number change turned out to be 49.2%. For the same molecule, the AC50 under setting [2] was 29.1 µM [rising, single point].
`CC(=O)N1c2ccc(S(=O)(=O)N3CCCC(C(=O)NCc4ccccc4Cl)C3)cc2CC1C` (centres undefined): the cell number change is -15.8%.
As for `O=C1C(SCCO)=C(SCCO)C(=O)c2ccccc21`, the cell number change is -95.8%. For the same molecule, the AC50 under setting [2] was 7.31 µM [falling, partial curve]. For the same molecule, under setting [1], the AC50 is 5.17 µM [falling, full curve].
Regarding `O=C(CCSc1nc(-c2ccco2)cc(C(F)(F)F)n1)NCc1ccccn1`, the cell number change amounted to 21.9%.
For the molecule `CCOC(=O)CC1ON(C)C(=O)N1c1ccc(Cl)cc1Cl` (centres undefined), the cell number change was -20.1%. Besides, under setting [1], the AC50 was 20.6 µM [falling, single point].
As for `CS(=O)(=O)N(CC(=O)NC1CCCC1)c1cccc(F)c1`, the cell number change was -2.57%.
As for `COCc1ccc(C(=O)OC(C)C(=O)Nc2c(C)n(C)n(-c3ccccc3)c2=O)cc1` (centres undefined), the cell number change was -3.16%. Also, the AC50 under setting [1] is 1.3 µM [rising, partial curve].
In the case of `COc1cc(C(=O)N2CCN=C2c2ccccc2)cc(OC)c1OC`, the cell number change is -11.6%. In addition, the AC50 under setting [1] is 10.3 µM [rising, partial curve, poor fit].
As to `c1ccc(Cc2nc3ccccc3o2)cc1`, the cell number change came to 8.73%. Moreover, the AC50 under setting [1] is 0.326 µM [rising, full curve, poor fit].
Consider `O=C(COC(=O)c1cc(C(F)(F)F)cc(C(F)(F)F)c1)NCc1ccc(Cl)cc1`, for which the cell number change amounted to 92.9%. In addition, the half-maximal activity concentration (AC50) under setting [2] is 29.1 µM [rising, single point].
